Results are given in words; binding and its absence hold for the method and conditions named. Binding seen in cells or lysates may run through a third protein. Some results given as binding are weak or reduced against the parent protein; the word gives no strength.

The chains behind the UniProt entries cited, without tags or fusion partners. Where a name states a change or a piece, a line headed by the entry shows the natural chain unless it says otherwise.
UniProt O14974: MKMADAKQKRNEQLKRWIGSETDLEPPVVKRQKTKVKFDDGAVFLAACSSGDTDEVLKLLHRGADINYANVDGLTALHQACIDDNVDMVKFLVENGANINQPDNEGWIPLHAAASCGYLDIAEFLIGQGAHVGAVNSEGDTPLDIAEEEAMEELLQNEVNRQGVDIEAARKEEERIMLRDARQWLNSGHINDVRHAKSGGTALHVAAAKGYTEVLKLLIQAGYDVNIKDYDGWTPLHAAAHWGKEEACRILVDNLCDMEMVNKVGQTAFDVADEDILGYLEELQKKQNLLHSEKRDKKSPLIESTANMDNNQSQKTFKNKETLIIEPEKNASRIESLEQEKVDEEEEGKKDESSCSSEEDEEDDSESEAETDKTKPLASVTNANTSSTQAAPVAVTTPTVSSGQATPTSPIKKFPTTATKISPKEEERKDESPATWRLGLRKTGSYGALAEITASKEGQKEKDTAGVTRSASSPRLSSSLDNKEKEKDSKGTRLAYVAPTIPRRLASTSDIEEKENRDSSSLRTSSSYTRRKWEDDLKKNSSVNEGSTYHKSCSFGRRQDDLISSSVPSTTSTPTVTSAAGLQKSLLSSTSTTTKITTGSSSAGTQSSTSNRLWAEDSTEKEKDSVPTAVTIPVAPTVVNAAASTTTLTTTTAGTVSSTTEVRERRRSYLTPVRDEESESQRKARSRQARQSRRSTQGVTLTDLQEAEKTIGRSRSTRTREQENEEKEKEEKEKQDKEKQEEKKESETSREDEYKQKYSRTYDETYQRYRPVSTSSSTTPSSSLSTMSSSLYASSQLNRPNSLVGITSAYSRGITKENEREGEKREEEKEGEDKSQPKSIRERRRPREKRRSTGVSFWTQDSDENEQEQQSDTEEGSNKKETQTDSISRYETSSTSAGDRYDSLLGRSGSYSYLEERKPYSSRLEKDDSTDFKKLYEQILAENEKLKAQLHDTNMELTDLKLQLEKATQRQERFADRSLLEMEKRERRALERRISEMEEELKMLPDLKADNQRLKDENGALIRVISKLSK

Experiment [1] deals with myosin phosphatase targeting subunit 1 (MYPT1) (Homo sapiens (Human)) (UniProt O14974). The experiment is described as follows: anti-GFP co-immunoprecipitation of GFP-Optn fragments with HA-MYPT1, HeLa cells (FIG. 4E).
Experiment [2] has the same target. The experiment is described as follows: anti-GFP co-immunoprecipitation of GFP-tagged Optn fragments with HA-MYPT1, HeLa cells (FIG. 4E).

“GFP-Optn 131-170 (from UniProt Q5R923 131-170)”: the binding entry in experiment [1] and in experiment [2] was “binds” in each case.

(Values after patent publication US20140336126A1.)
